The values below come from PubChem BioAssay AID256 (DTP/NCI, 2004).

The list does not hold the whole screen: it gathers tests that were run many times, whatever their T/C, doses with no T/C, and many T/C values between a quarter and a half above the control. Other doses and runs of a compound stand elsewhere. T/C: endpoint of the treated group in % of that of the vehicle group. Some entries give survivors of the animals treated and no T/C: the source files T/C as zero there, which appears to mark a toxic dose or a test without result, not a measured value. Some survivor counts are full or nearly so, which does not show that the dose was tolerated: the source hardly ever lists a survival T/C far under the control, and the zero likely stands for such cases as well. Survivors were counted at the toxicity check, usually on the fifth day, unless a day is given; later deaths do not show. Schedules are NCI's codes, taken here to give the interval after Q, in days (D) or hours (H), and the number of doses after X. Where survival is the endpoint, the PubChem record calls one and a half times the control and up active, and a quarter to a half above the control has no call in these data; cut-offs in other NCI protocols can differ.

The test system of this assay is CD2F1 mice, L1210 leukemia ip, survival T/C. Description: NCI In Vivo Anticancer Drug Screen. Data for tumor model L1210 Leukemia (intraperitoneal) in CD2F1 (CDF1) mice. Conditions: higher T/C = longer survival. The essentials: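 Read-out first: treated-group measurement over vehicle-control measurement, expressed as a ratio. Animals bore a transplanted tumor line and were dosed with compound or vehicle.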

[1] abbreviates: T/C endpoint: mean survival time, dose: 100.0 mg/kg/injection, schedule: Q04DX002 (ip), vehicle: saline with Tween-80.
[2] abbreviates: T/C endpoint: mean survival time, dose: 200.0 mg/kg/injection, schedule: Q04DX002 (ip), vehicle: saline with Tween-80.
[3] abbreviates: T/C endpoint: mean survival time, dose: 400.0 mg/kg/injection, schedule: Q04DX002 (ip), vehicle: saline with Tween-80.
[4] abbreviates: T/C endpoint: mean survival time, dose: 150.0 mg/kg/injection, schedule: Q01DX001 (ip), vehicle: saline.
Where [5] appears, read: T/C endpoint: mean survival time, dose: 300.0 mg/kg/injection, schedule: Q01DX001 (ip), vehicle: saline.
Where [6] appears, read: T/C endpoint: mean survival time, dose: 100.0 mg/kg/injection, schedule: Q01DX009 (ip), vehicle: saline with Tween-80.
The mark [7] stands for this setting: T/C endpoint: mean survival time, dose: 200.0 mg/kg/injection, schedule: Q01DX009 (ip), vehicle: saline with Tween-80.
The mark [8] stands for this setting: T/C endpoint: mean survival time, dose: 400.0 mg/kg/injection, schedule: Q01DX009 (ip), vehicle: saline with Tween-80.

Take `O=C1C=CC(=CC=C2C=CN(CCCCCCCCCCCO)C=C2)C=C1`: the T/C by setting is: (T/C endpoint: median survival time, dose: 6.25 mg/kg/injection, schedule: Q01DX005 (ip), vehicle: saline with Tween-80) 127 % of control; (T/C endpoint: median survival time, dose: 28.93 mg/kg/injection, schedule: Q01DX005 (ip), vehicle: saline with Tween-80) 125 % of control.
Take `C1CCN(P(N2CCCCC2)N2CCCCC2)CC1`: the survivor count (T/C endpoint: mean survival time, dose: 400.0 mg/kg/injection, schedule: Q04DX002 (ip), vehicle: saline) was 2 of 3.
Consider `Cc1csc2ncnc(Cl)c12`, for which the survivor count is, setting by setting: under setting [1], 3 of 3; under setting [2], 3 of 3; under setting [3], 3 of 3.
`CCOC(=N)c1cn(C2OC(CO)C(O)C2O)c2nc[nH]c(=O)c12` (configuration not stated): the survivor count is on record as 1 of 6 under setting [4] and 0 of 6 under setting [5].
Turning to `C[N+](C)(CC(=O)Nc1cc(C(F)(F)F)cc(C(F)(F)F)c1)CC(=O)Nc1ccc(Cl)c(C(F)(F)F)c1`, the survivor count was 1 of 6 under setting [6]; 2 of 3 under setting [1]; 0 of 6 under setting [7]; 0 of 3 under setting [2]; 0 of 6 under setting [8]; 0 of 3 under setting [3].
Regarding `CCOC(=O)/C(C)=C/C(O)CO` (configuration not stated), the survivor count (T/C endpoint: mean survival time, dose: 400.0 mg/kg/injection, schedule: Q01DX009 (ip), vehicle: saline sonified) is recorded as 6 of 6.
As for `O=C(O)c1cccc2c1-c1ccccc1C(Br)C2Br` (configuration not stated), where the note is “T/C endpoint: mean survival time, dose: 200.0 mg/kg/injection, schedule: Q01DX005 (ip), vehicle: saline with Tween-80”, the survivor count is listed as 0 of 3.
Consider `C=CCc1ccc(OC(=O)Nc2ccc(C)c([N+](=O)[O-])c2)c(OC)c1`, for which the survivor count (T/C endpoint: mean survival time, dose: 50.0 mg/kg/injection, schedule: Q01DX009 (ip), vehicle: saline with Tween-80) is given as 3 of 3 and the survivor count under setting [6] is reported as 3 of 3.
On to `CC1NC(=O)C(NC(=O)c2cnc3ccccc3n2)COC(=O)C(C(C)C)N(C)C(=O)C2CSSCC(C(=O)N(C)C(C(C)C)C(=O)OCC(NC(=O)c3cnc4ccccc4n3)C(=O)NC(C)C(=O)N2C)N(C)C1=O` (configuration not stated), for which the survivor count (T/C endpoint: mean survival time, dose: 300.0 micrograms/kg/injection, schedule: Q01DX009 (ip), vehicle: other) is reported as 5 of 6.
In the case of `COc1cc(-c2nc(-c3ccc(N=Cc4ccc(N(CCCOS(C)(=O)=O)CCCOS(C)(=O)=O)cc4)cc3)cs2)ccc1OCc1ccccc1`, the survivor count is 6 of 6 under setting [6] and 6 of 6 under setting [8].
On to `ClC1CCC[N-]C1.ClC1CCC[N-]C1.[Cl][Pt+2][Cl]` (configuration not stated), for which the survivor count is 6 of 6 (T/C endpoint: mean survival time, dose: 12.5 mg/kg/injection, schedule: Q01DX009 (ip), vehicle: Klucel (hydroxypropylcellulose) (HPC)); 4 of 6 (T/C endpoint: mean survival time, dose: 25.0 mg/kg/injection, schedule: Q01DX009 (ip), vehicle: Klucel (hydroxypropylcellulose) (HPC)); 2 of 6 (T/C endpoint: mean survival time, dose: 50.0 mg/kg/injection, schedule: Q01DX009 (ip), vehicle: Klucel (hydroxypropylcellulose) (HPC)); 2 of 6 (T/C endpoint: mean survival time, dose: 100.0 mg/kg/injection, schedule: Q01DX009 (ip), vehicle: Klucel (hydroxypropylcellulose) (HPC)); 0 of 6 (T/C endpoint: mean survival time, dose: 200.0 mg/kg/injection, schedule: Q01DX009 (ip), vehicle: Klucel (hydroxypropylcellulose) (HPC)); 1 of 6 under setting [7].
With `O=C(OCc1ccccc1)C1CC1`, the survivor count under setting [3] is 0 of 3.
On to `C(CC1CO1)C1CO1` (configuration not stated), for which, where the note is “T/C endpoint: mean survival time, dose: 75.0 mg/kg/injection, schedule: Q01DX009 (ip), vehicle: Klucel (hydroxypropylcellulose) (HPC)”, the T/C was 142 % of control. Moreover, under “T/C endpoint: mean survival time, dose: 112.5 mg/kg/injection, schedule: Q01DX009 (ip), vehicle: Klucel (hydroxypropylcellulose) (HPC)”, the survivor count was 3 of 6.
Take `C=CCn1c(NCCN(CC)CC)nc2cc([N+](=O)[O-])ccc2c1=O`: the survivor count reads like this: under setting [6], 0 of 6; under setting [7], 0 of 6; under setting [8], 0 of 6.
On to `COc1cc2c(cc1OC)C1CC(O)C3CCCCC3N1CC2` (configuration not stated), for which the survivor count (T/C endpoint: mean survival time, dose: 400.0 mg/kg/injection, schedule: Q04DX003 (ip), vehicle: saline with Tween-80) is on record as 0 of 6.
As to `CSc1nnc(SC)c(SC)n1`, the survivor count was 2 of 6 under setting [4] and 0 of 6 under setting [5].
Turning to `CNC1CCCCCC1`, the survivor count under setting [5] is recorded as 0 of 6.
